PubChem BioAssay AID652243 – Drosophila RNAi Screening Center | 2013
The deposit covers about 24,000 reagents; shown is a random part of those with a known target gene and a result. In the full data, 246 (1%) are marked active. 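Plates not normalised; calls are printed but the firefly/Renilla ratio behind them is not deposited; fold cut for lowering reported inconsistently.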 Raw values are not corrected between plates. Names joined by + are all predicted targets of the reagent. Not stated in the record: the amount of reagent.

Screen: 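Fly regulators of androgen-dependent reporter output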 (primary screen)
System: Drosophila S2R+ cells
Reagent: long dsRNA against Drosophila genes
Timing: 72 h (48 h, then 24 h hormone)
Challenge: synthetic androgen R1881 at 10 nM for 24 h
Read-out: 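Firefly light from an androgen-responsive reporter and Renilla control light per well, raw and unnormalised, for each of two replicates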
Direction: firefly reporter light: higher = more light from androgen-responsive reporter; Renilla control light: higher = more constitutive control signal (cell number, transfection)
Hit rule: 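Hit when the log firefly-to-Renilla ratio dropped or increased by a fixed fold versus the mean of GFP or LacZ controls across duplicate plates; lowering cut given as 1.5 and as 3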
Meaning of the calls: active = hit: reporter lowered or raised; inactive = no hit

The opening 5 records, ahead of the listing:
| Gene | dsRNA | firefly reporter light, replicate 1 | firefly reporter light, replicate 2 | Renilla control light, replicate 1 | Renilla control light, replicate 2 | activity call |
| --- | --- | --- | --- | --- | --- | --- |
| CG32820 + CG17450 + CG32819 | DRSC21803 | 5.11e5 | 4.56e5 | 2.51e6 | 3.38e6 | inactive |
| CG32820 + CG17450 + CG32819 | DRSC22812 | 5.31e5 | 9.49e5 | 9.38e5 | 1.67e6 | inactive |
| CG32820 + CG17450 + CG32819 | DRSC27791 | 3.91e5 | 2.75e5 | 3.43e5 | 5.61e5 | inactive |
| Nhe2 (GeneID 35376) | DRSC03172 | 80821 | 1.01e5 | 1.19e6 | 1.12e6 | inactive |
| Nhe2 (GeneID 35376) | DRSC03377 | 1.98e5 | 1.84e5 | 1.71e6 | 1.81e6 | inactive |

Results, repeating the preview:
| Gene | dsRNA | firefly reporter light, replicate 1 | firefly reporter light, replicate 2 | Renilla control light, replicate 1 | Renilla control light, replicate 2 | activity call |
| --- | --- | --- | --- | --- | --- | --- |
| CG32820 + CG17450 + CG32819 | DRSC21803 | 5.11e5 | 4.56e5 | 2.51e6 | 3.38e6 | inactive |
| CG32820 + CG17450 + CG32819 | DRSC22812 | 5.31e5 | 9.49e5 | 9.38e5 | 1.67e6 | inactive |
| CG32820 + CG17450 + CG32819 | DRSC27791 | 3.91e5 | 2.75e5 | 3.43e5 | 5.61e5 | inactive |
| Nhe2 (GeneID 35376) | DRSC03172 | 80821 | 1.01e5 | 1.19e6 | 1.12e6 | inactive |
| Nhe2 (GeneID 35376) | DRSC03377 | 1.98e5 | 1.84e5 | 1.71e6 | 1.81e6 | inactive |
| CG33346 (GeneID 2768690) | DRSC22898 | 8.16e5 | 1.04e6 | 2.09e6 | 2.99e6 | inactive |
| Argk2 (GeneID 39040) | DRSC10483 | 3.72e5 | 1.98e5 | 3.13e6 | 1.64e6 | inactive |
| Argk2 (GeneID 39040) | DRSC23349 | 6.89e5 | 7.83e5 | 5.71e5 | 8.83e5 | inactive |
| Argk2 (GeneID 39040) | DRSC28762 | 6.58e5 | 6.41e5 | 1.33e6 | 1.08e6 | inactive |
| Inx3 (GeneID 44266) | DRSC14857 | 74457 | 72508 | 1.12e6 | 7.43e5 | inactive |
| Inx3 (GeneID 44266) | DRSC24037 | 4.91e5 | 3.95e5 | 5.80e5 | 5.55e5 | inactive |
| Wnt2 (GeneID 35975) | DRSC05160 | 2.70e5 | 2.43e5 | 4.81e5 | 6.52e5 | inactive |
| Wnt2 (GeneID 35975) | DRSC07574 | 4.03e5 | 2.19e5 | 2.06e6 | 1.26e6 | inactive |
| Sap130 (GeneID 39455) | DRSC09680 | 1.11e5 | 92620 | 1.72e6 | 1.37e6 | inactive |
| Sap130 (GeneID 39455) | DRSC28079 | 2.79e5 | 3.27e5 | 1.68e6 | 1.56e6 | active |
| CG32683 (GeneID 31970) | DRSC17990 | 4.38e5 | 2.98e5 | 3.08e6 | 2.87e6 | inactive |
| CG32683 (GeneID 31970) | DRSC18232 | 6.14e5 | 4.94e5 | 2.69e6 | 3.96e6 | inactive |
| CG32683 (GeneID 31970) | DRSC18233 | 6.69e5 | 4.02e5 | 6.03e6 | 2.45e6 | inactive |
| CG32683 (GeneID 31970) | DRSC29475 | 6.66e5 | 8.23e5 | 1.20e6 | 1.20e6 | inactive |
| Ppi1 (GeneID 43581) | DRSC15421 | 41745 | 42740 | 4.82e5 | 2.94e5 | inactive |
| Dh44-R1 (GeneID 36601) | DRSC07172 | 6.18e5 | 8.20e5 | 1.84e6 | 1.75e6 | inactive |
| Dh44-R1 (GeneID 36601) | DRSC28984 | 3.05e5 | 3.23e5 | 1.13e6 | 1.13e6 | inactive |
| Cp15 (GeneID 38999) | DRSC11118 | 2.63e5 | 1.62e5 | 2.90e6 | 1.43e6 | inactive |
| Cp15 (GeneID 38999) | DRSC28629 | 5.39e5 | 5.42e5 | 1.35e6 | 1.50e6 | inactive |
| CG15831 (retired record) (GeneID 3355006) | DRSC38783 | 7.64e5 | 7.69e5 | 1.41e6 | 1.80e6 | inactive |
| Msp300 (GeneID 3771968) | DRSC00856 | 3.93e5 | 1.19e5 | 9.54e5 | 6.24e5 | inactive |
| Msp300 (GeneID 3771968) | DRSC00857 | 1.02e5 | 64343 | 2.97e5 | 3.17e5 | inactive |
| Msp300 (GeneID 3771968) | DRSC00858 | 1.42e5 | 1.76e5 | 6.03e5 | 5.24e5 | inactive |
| Msp300 (GeneID 3771968) | DRSC02360 | 50877 | 45774 | 7.42e5 | 7.77e5 | inactive |
| Msp300 (GeneID 3771968) | DRSC03369 | 3.98e5 | 7.56e5 | 1.46e6 | 1.00e6 | inactive |
| Msp300 (GeneID 3771968) | DRSC03370 | 2.75e5 | 1.41e5 | 1.81e6 | 1.22e6 | inactive |
| CG15456 (GeneID 50123) | DRSC20527 | 1.28e5 | 94327 | 5.39e5 | 3.27e5 | inactive |
| CG6216 (GeneID 39257) | DRSC10606 | 2.58e5 | 2.36e5 | 2.84e6 | 2.65e6 | inactive |
| CG6216 (GeneID 39257) | DRSC28352 | 2.84e5 | 5.36e5 | 1.04e6 | 1.17e6 | inactive |
| Phs (GeneID 39697) | DRSC10827 | 59339 | 54987 | 5.84e5 | 2.56e5 | inactive |
| Phs (GeneID 39697) | DRSC29714 | 4.58e5 | 4.79e5 | 1.51e6 | 1.35e6 | inactive |
| Ddx1 (GeneID 40457) | DRSC11862 | 35800 | 37444 | 2.83e5 | 2.49e5 | inactive |
| CG2841 (GeneID 44529) | DRSC18824 | 2.83e5 | 3.24e5 | 3.10e6 | 2.84e6 | inactive |
| CG2841 (GeneID 44529) | DRSC22106 | 6.82e5 | 5.63e5 | 2.25e6 | 2.45e6 | inactive |
| CG12540 (GeneID 32393) | DRSC19471 | 5.68e5 | 5.54e5 | 3.91e6 | 4.21e6 | inactive |
| CG3603 (GeneID 31289) | DRSC18317 | 2.32e5 | 2.79e5 | 2.75e6 | 3.62e6 | inactive |
| CG33120 (GeneID 326260) | DRSC02073 | 1.14e6 | 7.61e5 | 2.47e6 | 1.93e6 | inactive |
| CG30466 (GeneID 246629) | DRSC05556 | 1.63e5 | 2.47e5 | 3.42e5 | 5.10e5 | inactive |
| Cyp4d20 (GeneID 38311) | DRSC08654 | 86442 | 63957 | 1.02e6 | 1.13e6 | inactive |
| Cyp4d20 (GeneID 38311) | DRSC25418 | 5.94e5 | 4.20e5 | 6.50e5 | 5.72e5 | inactive |
| TMEM216 (GeneID 41035) | DRSC16378 | 1.22e5 | 1.24e5 | 2.16e6 | 2.45e6 | inactive |
| TMEM216 (GeneID 41035) | DRSC25583 | 5.69e5 | 6.67e5 | 8.25e5 | 8.91e5 | inactive |
| norpA (GeneID 31376) | DRSC18806 | 1.07e5 | 81931 | 9.09e5 | 5.89e5 | inactive |
| Nup43 (GeneID 42209) | DRSC16279 | 76901 | 1.39e5 | 1.08e6 | 1.58e6 | inactive |
| CG9812 (GeneID 37709) | DRSC04566 | 3.29e5 | 3.42e5 | 2.06e6 | 1.79e6 | inactive |
| CG1227 (GeneID 40872) | DRSC12534 | 41286 | 42743 | 4.71e5 | 3.03e5 | inactive |
| CG1227 (GeneID 40872) | DRSC25952 | 3.58e5 | 4.40e5 | 8.73e5 | 8.66e5 | inactive |
| CG34201 (GeneID 5740368) | DRSC38628 | 1.03e6 | 7.19e5 | 2.26e6 | 1.31e6 | inactive |
| CG32237 (GeneID 38584) | DRSC08312 | 2.56e5 | 1.97e5 | 2.17e6 | 3.89e6 | inactive |
| CG32237 (GeneID 38584) | DRSC08315 | 2.08e5 | 2.55e5 | 2.27e6 | 3.56e6 | inactive |
| CG32237 (GeneID 38584) | DRSC29288 | 4.64e5 | 5.28e5 | 1.21e6 | 1.17e6 | inactive |
| Grl58a (GeneID 37509) | DRSC04145 | 2.31e5 | 2.03e5 | 1.97e6 | 1.35e6 | inactive |
| Prx3 (GeneID 42109) | DRSC15883 | 1.03e5 | 69344 | 7.92e5 | 6.35e5 | inactive |
| Prx3 (GeneID 42109) | DRSC29107 | 9.33e5 | 6.05e5 | 1.53e6 | 1.29e6 | inactive |
| Prdm13 (GeneID 38713) | DRSC09970 | 2.11e5 | 2.27e5 | 1.88e6 | 2.69e6 | inactive |
| r-l (GeneID 42493) | DRSC17042 | 3.14e5 | 3.51e5 | 1.83e6 | 2.23e6 | inactive |
| r-l (GeneID 42493) | DRSC22784 | 5.29e5 | 8.82e5 | 9.60e5 | 1.44e6 | inactive |
| CG42675 (GeneID 40722) | DRSC12157 | 17872 | 23631 | 2.30e5 | 2.28e5 | inactive |
| CG42675 (GeneID 40722) | DRSC21868 | 5.56e5 | 4.91e5 | 1.12e6 | 1.01e6 | inactive |
| CG42675 (GeneID 40722) | DRSC24431 | 8.98e5 | 5.48e5 | 1.08e6 | 1.01e6 | inactive |
| CG42675 (GeneID 40722) | DRSC26577 | 2.84e5 | 2.63e5 | 6.12e5 | 5.14e5 | inactive |
| CG42675 (GeneID 40722) | DRSC37072 | – | – | – | – | inactive |
| CG9636 (GeneID 40967) | DRSC16529 | 87322 | 1.13e5 | 5.85e5 | 7.66e5 | inactive |
| CG31371 (GeneID 43626) | DRSC15079 | 2.31e5 | 2.06e5 | 1.98e6 | 2.55e6 | inactive |
| CG15005 (GeneID 38506) | DRSC08459 | 1.80e5 | 2.30e5 | 2.36e6 | 3.68e6 | inactive |
| CG15005 (GeneID 38506) | DRSC26556 | 4.89e5 | 4.05e5 | 5.91e5 | 7.76e5 | inactive |
| Hrs (GeneID 33458) | DRSC00549 | 7.62e5 | 5.34e5 | 4.27e6 | 2.46e6 | active |
| Hrs (GeneID 33458) | DRSC27741 | 2.45e5 | 2.02e5 | 3.02e5 | 4.94e5 | inactive |
| Rim (GeneID 42150) | DRSC16224 | 2.04e5 | 2.72e5 | 2.25e6 | 2.24e6 | inactive |
| Rim (GeneID 42150) | DRSC16226 | 50448 | 33959 | 4.60e5 | 4.05e5 | inactive |
| Rim (GeneID 42150) | DRSC16227 | 1.87e5 | 1.66e5 | 3.41e6 | 3.46e6 | inactive |
| Rim (GeneID 42150) | DRSC22406 | 4.29e5 | 8.46e5 | 6.56e5 | 1.34e6 | inactive |
